Experimental data reported in patent US20040072742A1.
These are yes or no findings as the source states them, for the method shown. Some entries that bind do so weakly or less than the wild type. Sequences can lack the tags named with a protein.

Biological target: T1, GST-MD36N4 protein (human MD36 C terminal part fused to glutathione S-transferase) (human) (UniProt Q9Y613)
T1 sequence: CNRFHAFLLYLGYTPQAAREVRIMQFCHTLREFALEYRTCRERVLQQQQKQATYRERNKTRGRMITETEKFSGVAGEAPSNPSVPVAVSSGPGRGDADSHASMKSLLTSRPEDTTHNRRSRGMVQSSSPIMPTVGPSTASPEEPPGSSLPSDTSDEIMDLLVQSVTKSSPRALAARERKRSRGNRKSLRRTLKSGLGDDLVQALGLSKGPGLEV
Test: plate binding inhibition test; competitor of IRAP-His on GST-MD36N4-coated wells

binding: binds
B1: biotinylated IRAP (55-82) peptide, chemically synthesized, without His-tag (peptide)
peptide: VRGLGEHEMDEDEEDYESSAKLLGMSFM
modifications: biotinylated (position not given)
